Measured values reported in patent publication US20230143604A1, “QW DOSING OF GIP RECEPTOR AGONIST PEPTIDE COMPOUNDS AND USES THEREOF” (TAKEDA PHARMACEUTICAL COMPANY LIMITED, priority 2020, published 2023).

Experiment: Solubility in phosphate buffer pH 7.4
Conditions: pH 7.4, aqueous buffer, pH 7.4 Phosphate Buffer - Solubility, 200 mM Phosphate buffer pH 7.4
Description: Solubility of the GIPR peptides may be determined by dissolution in a phosphate buffer followed by quantitation using liquid chromatography, for example, High Performance Liquid Chromatogry (HPLC). An illustrative method is provided. For determination of the solubility of the GIPr agonist peptides, 3 mg of peptides are weighted out in a small glass vial. 100 μL of 200 mM Phosphate buffer pH 7.4 are added and the vial is sonicated/votexed as necessary for a maximum of 1 min. […] If insoluble material is observed in the tube the addition of 100 μL of buffer and mixing is repeated until complete dissolution.
3 mg of peptides are weighted out in a small glass vial. 100 uL of 200 mM Phosphate buffer pH 7.4 are added and the vial is sonicated/votexed as necessary for a maximum of 1 min. […] If insoluble material is observed in the tube the addition of 100 uL of buffer and mixing is repeated until complete dissolution.

## CC[C@H](C)[C@H](NC(=O)[C@H](CO)NC(=O)[C@H](Cc1ccc(O)cc1)NC(=O)[C@H](CC(=O)O)NC(=O)[C@H](CO)NC(=O)[C@@H](NC(=O)[C@H](Cc1ccccc1)NC(=O)[C@@H](NC(=O)CNC(=O)[C@H](CCC(=O)O)NC(=O)C(C)(C)NC(=O)[C@H](Cc1ccc(O)cc1)NC)[C@@H](C)O)[C@@H](C)CC)C(=O)N[C@@H](C)C(=O)N[C@@H](CC(C)C)C(=O)N[C@@H](CC(=O)O)C(=O)N[C@@H](CCCNC(=N)N)C(=O)NC(C)(C)C(=O)N[C@@H](C)C(=O)N[C@@H](CCC(N)=O)C(=O)NC(C)(C)C(=O)N[C@@H](CCCCNC(=O)COCCOCCNC(=O)COCCOCCNC(=O)CC[C@H](NC(=O)CC[C@H](NC(=O)CCCCCCCCCCCCCCCCC(=O)O)C(=O)O)C(=O)O)C(=O)N[C@@H](Cc1ccccc1)C(=O)N[C@H](C(=O)N[C@@H](CC(N)=O)C(=O)N[C@@H](Cc1c[nH]c2ccccc12)C(=O)N[C@@H](CC(C)C)C(=O)N[C@@H](CC(C)C)C(=O)N[C@@H](C)C(=O)N[C@@H](CCC(N)=O)C(=O)N[C@@H](CCCCN)C(=O)NCC(=O)O)C(C)C [Compound 41, Me-Y-Aib-E-G-T-F-I-S-D-Y-S-I-A-L-D-R-Aib-A-Q-Aib-Km-F-V-N-W-L-L-A-Q-K-G-OH]
  solubility: ≥ 30 mg/mL
